Measured values published in PMC10612104.

Target: HIV-1 49.5 Env (NL43 Env carrying the V3 region of the Ba-L isolate) (HIV-1 NL43 | HIV-1 Ba-L)
Test: co-IP; filtered cell-free supernatants of co-transfected HEK293T cells (molecular clone and hMRC1-3xHA) pelleted by ultracentrifugation, suspended in 1 mL CoIP lysis buffer; precipitated with Env-specific antiserum; blots for Env, HA, tubulin, HIV-Ig

B1: C-terminally HA-tagged hMRC1 (hMRC1-3xHA) (receptor, UniProt P22897 1-1456)
chain: MRLPLLLVFASVIPGAVLLLDTRQFLIYNEDHKRCVDAVSPSAVQTAACNQDAESQKFRWVSESQIMSVAFKLCLGVPSKTDWVAITLYACDSKSEFQKWECKNDTLLGIKGEDLFFNYGNRQEKNIMLYKGSGLWSRWKIYGTTDNLCSRGYEAMYTLLGNANGATCAFPFKFENKWYADCTSAGRSDGWLWCGTTTDYDTDKLFGYCPLKFEGSESLWNKDPLTSVSYQINSKSALTWHQARKSCQQQNAELLSITEIHEQTYLTGLTSSLTSGLWIGLNSLSFNSGWQWSDRSPFRYLNWLPGSPSAEPGKSCVSLNPGKNAKWENLECVQKLGYICKKGNTTLNSFVIPSESDVPTHCPSQWWPYAGHCYKIHRDEKKIQRDALTTCRKEGGDLTSIHTIEELDFIISQLGYEPNDELWIGLNDIKIQMYFEWSDGTPVTFTKWLRGEPSHENNRQEDCVVMKGKDGYWADRGCEWPLGYICKMKSRSQGPEIVEVEKGCRKGWKKHHFYCYMIGHTLSTFAEANQTCNNENAYLTTIEDRYEQAFLTSFVGLRPEKYFWTGLSDIQTKGTFQWTIEEEVRFTHWNSDMPGRKPGCVAMRTGIAGGLWDVLKCDEKAKFVCKHWAEGVTHPPKPTTTPEPKCPEDWGASSRTSLCFKLYAKGKHEKKTWFESRDFCRALGGDLASINNKEEQQTIWRLITASGSYHKLFWLGLTYGSPSEGFTWSDGSPVSYENWAYGEPNNYQNVEYCGELKGDPTMSWNDINCEHLNNWICQIQKGQTPKPEPTPAPQDNPPVTEDGWVIYKDYQYYFSKEKETMDNARAFCKRNFGDLVSIQSESEKKFLWKYVNRNDAQSAYFIGLLISLDKKFAWMDGSKVDYVSWATGEPNFANEDENCVTMYSNSGFWNDINCGYPNAFICQRHNSSINATTVMPTMPSVPSGCKEGWNFYSNKCFKIFGFMEEERKNWQEARKACIGFGGNLVSIQNEKEQAFLTYHMKDSTFSAWTGLNDVNSEHTFLWTDGRGVHYTNWGKGYPGGRRSSLSYEDADCVVIIGGASNEAGKWMDDTCDSKRGYICQTRSDPSLTNPPATIQTDGFVKYGKSSYSLMRQKFQWHEAETYCKLHNSLIASILDPYSNAFAWLQMETSNERVWIALNSNLTDNQYTWTDKWRVRYTNWAADEPKLKSACVYLDLDGYWKTAHCNESFYFLCKRSDEIPATEPPQLPGRCPESDHTAWIPFHGHCYYIESSYTRNWGQASLECLRMGSSLVSIESAAESSFLSYRVEPLKSKTNFWIGLFRNVEGTWLWINNSPVSFVNWNTGDPSGERNDCVALHASSGFWSNIHCSSYKGYICKRPKIIDAKPTHELLTTKADTRKMDPSKPSSNVAGVVIIVILLILTGAGLAAYFFYKKRRVHLPQEGAFENTLYFNSQSSPGTSDMKDLVGNIEQNEHSVI
For B1, the binding was “binds weakly”.

Results are given in words; binding and its absence hold for the method and conditions named. In cells and extracts the contact can be indirect. Binding can be weak; no strength is given. Where a sequence is shown, tags or fusion partners need not be part of it.
